For this experiment, the system named is Cryptococcus neoformans. The experiment is described as follows: agar dilution assay (MIC) against expanded panel of 84 Cryptococcus neoformans isolates. Format: cell-based. Conditions: 84 isolates. As for the experimental part:
Such activity may be illustrated with test results against Cryptococcus neoformans employing yeast nitrogen base dextrose agar medium. In carrying out the assay, Compound I was solubilized in 10 percent dimethyl sulfoxide (DMSO) supplemented with one drop of Tween 20. Twofold dilutions were made with sterile distilled water/10 percent DMSO to obtain final drug concentrations in the agar dilution assay plates ranging from 128 to 0.06 μg/ml against two strains of Cryptococcus neoformans and subsequently against an expanded panel of 84 Cryptococcus strains at concentrations ranging from 0.008 to 16.0 μg/ml.
Nystatin or amphotericin B was used as a positive control. For the assay, nystatin was solubilized in 10 percent dimethylformamide and diluted in sterile distilled water; amphotericin B was solubilized by expressing water directly into a lyophilized cake and shaking until the colloidal solution was clear and then diluted in sterile distilled water. The final drug concentrations ranged from 0.063 to 128 μg/ml.

The structures appear in SMILES notation. Converted amounts (≈) assume the structure as drawn. Like-named read-outs stand apart in the source and are kept apart here.

Regarding `C[C@@H]1[C@H](O)[C@@H](C)/C=C/C=C/C=C/C=C/C=C/C=C/C=C/[C@H](O[C@@H]2O[C@H](C)[C@@H](O)[C@H](N)[C@@H]2O)C[C@@H]2O[C@](O)(C[C@@H](O)C[C@@H](O)[C@H](O)CC[C@@H](O)C[C@@H](O)CC(=O)O[C@H]1C)C[C@H](O)[C@H]2C(=O)O` [Amphotericin B, amphotericin B], the MIC reads like this: (read-out: G-MIC (geometric means of MIC)) less than 0.16 µg/mL; (read-out: Range (MIC)) 0.063 to 0.25 µg/mL (≈ 0.0682 to 0.271 µM).

These data come from patent US4946835A (priority 1988, dated 1990).
